Experimental data: patent publication US11504414B2, “Bacterial inhibitors” (priority 2016, dated 2022)
Not every detail of the peptide structures is certain; ends, links or a residue may be inferred. Where no end group is shown, it is not given here.

Columns and labels:
[1] = system: P. gingivalis 33277; assay: Monotypic biofilm assay on saliva-coated surface (crystal violet); type: cell-based, Porphyromonas gingivalis; conditions: P4 24 μM
[2] = system: P. gingivalis 33277; assay: Bacterial invasion assay (antibiotic protection) in human oral keratinocytes; type: cell-based, Porphyromonas gingivalis; conditions: P4 24 μM; HOKs
[3] = system: P. gingivalis W83; assay: Monotypic biofilm assay on saliva-coated surface (crystal violet); type: cell-based, Porphyromonas gingivalis; conditions: 24 or 48 μM P4, 24 h
[4] = system: P. gingivalis 33277; assay: Western blot of fimbrial proteins and gingipains; type: cell-based, Porphyromonas gingivalis
[5] = system: P. gingivalis W83; assay: Bacterial invasion assay (antibiotic protection) in human oral keratinocytes; type: cell-based, Porphyromonas gingivalis; conditions: P4 48 μM; HOKs
[6] = system: P. gingivalis 33277-S. gordonii DL1 heterotypic biofilms; assay: Heterotypic biofilm assay (formation, qPCR); type: cell-based, Porphyromonas gingivalis; conditions: P4 24 μM, 4 h reaction
[7] = system: P. gingivalis Δ0806; assay: Gene expression in pgn_0806 mutant with peptide4 (qRT-PCR); type: cell-based, Porphyromonas gingivalis; conditions: peptide4 16 μM; loss of PGN_0806
[8] = system: S. gordonii DL1; assay: S. gordonii numbers in growth media of heterotypic biofilms (qPCR); type: cell-based, Streptococcus gordonii; conditions: P4 24 μM
[9] = system: P. gingivalis ΔragB; assay: Gene expression in ragB mutant with peptide4 (qRT-PCR); type: cell-based, Porphyromonas gingivalis; conditions: peptide4 16 μM; ragB mutation
[10] = system: P. gingivalis W83; assay: Arg- and Lys-specific proteinase (gingipain) activities; type: cell-based, Porphyromonas gingivalis; conditions: P4 48 μM
[11] = system: P. gingivalis 33277; assay: as above; type: cell-based, Porphyromonas gingivalis; conditions: P4 48 μM
[12] = P4 stability in H2O and PBS (LC-MS/MS); type: physicochemical; conditions: 37° C.
Protocol: Non-proteinogenic amino acids may improve peptide stability.
To determine P4 stability in solution, P4 was incubated in H2O, PBS, and whole saliva at 37° C. for 24 h. P4 in each sample was compared using LC-MS/MS analysis. Briefly, 2 μM P4 was injected on C18 nano-clumn and run with 5-20% of 0.1% FA in acetonitrile for 30 min. MS spectra were acquired in a positive mode on Orbitrap LTQ XL (Thermo).

[13] = system: surface extracts of P. gingivalis 33277; assay: ArcA peptide microarray binding of surface extracts; design: species or system Porphyromonas gingivalis; conditions: portions of ArcA
Protocol: The five highest peaks are numbered.
Protein Interaction Screening. Surface extracts of P. gingivalis were collected by sonication (1 min for three times) and centrifugation (13000 g for 30 min) followed by filtration (0.2 μm pore size). Peptide microarray analysis was performed by PEPperPRINT (Heidelberg, Germany). An ArcA microarray was generated with 409 different peptides of ArcA, and each peptide contained 15 amino acids with a peptide-peptide overlap of 14 amino acids. After blocking and washing, the array was incubated with surface extracts (100 μg/ml) isolated from P. gingivalis 33277, the 0806 mutant, or the ragB mutant. P. gingivalis surface proteins bound on the ArcA array were detected using anti-P. gingivalis antibodies and sheep anti-rabbit IgG (H+L) DyLight680. The arrays were analyzed with a LI-COR Odyssey Imaging System.

[14] = system: fimR (ΔfimR) and fimS (ΔfimS) mutants; assay: fimA/mfa1 expression in fimR and fimS mutants with peptide4 (qRT-PCR); type: cell-based, Porphyromonas gingivalis; conditions: peptide4 16 μM; absence of FimS and FimR
[15] = system: P. gingivalis 33277 in S. gordonii DL1 biofilms; assay: Dispersion of P. gingivalis from established heterotypic biofilms (qPCR); type: cell-based, Porphyromonas gingivalis
[16] = system: P. gingivalis 33277; assay: Transmission electron microscopy of fimbriae; type: cell-based, Porphyromonas gingivalis; conditions: peptide4 16 μM, 48 h

Question: For NIFKKNVGFKK [P4, NIFKKNVGFKK], which “decrease of attachment to saliva-covered surface” value ([1]; 24 h incubation, vs control without P4) is on record?
Answer: The value was “approximately 25%”.

Question: And the “decrease in attachment to saliva-covered surface” value ([1]; 48 h)?
Answer: The value was 70%.

Question: And the “reduction of invasion efficiency” value [2]?
Answer: The value was ~4.8 fold.

Question: And the “impact on biofilm formation” value [3]?
Answer: Its value is “not observed”.

Question: What about the “production of FimA, Mfa1 and HGP44” value ([4]; 12 and 48 μM peptide4, 48 h) of the same sequence?
Answer: Its value is “significantly decreased”.

Question: And the “production of immunoreactive 53 kDa antigen” value ([4]; peptide4 3, 12, 48 μM)?
Answer: Its value is “not altered”.

Question: And the “difference in invasion efficiency with/without P4” value [5]?
Answer: Its value is 5.2 fold.

Question: And the “number of P. gingivalis bound to S. gordonii DL1 biofilms, grown without P4 vs with P4” value [6]?
Answer: Its value is 2.5 fold.

Question: What about the “peptide4-dependent regulation of fimA, mfa1, rgp and kgp” value [7] of the same sequence?
Answer: The value was “prevented peptide4-dependent regulation”.

Question: And the “numbers of S. gordonii in the growth media” value [8]?
Answer: Its value is “did not alter”.

Question: And the “inhibitory effect toward all target genes” value [9]?
Answer: Its value is “significantly reduced inhibitory effect”.

Question: What about the “inhibition of cell-associated lysine-specific protease activity” value [10] of the same sequence?
Answer: Its value is “to a similar degree”.

Question: And the “lowering of Rgp and Kgp activity in culture supernatants” value [10]?
Answer: Its value is 50%.

Question: And the “inhibition of cell-associated lysine-specific protease activity” value [11]?
Answer: Its value is “to a similar degree”.

Question: And the “decrease in Kgp activity in growth media” value ([11]; secreted gingipains)?
Answer: Its value is 2 fold.

Question: What about the “decrease in Rgp activity in growth media” value ([11]; secreted gingipains) of the same sequence?
Answer: Its value is “greater than 2.5 fold”.

Question: And the “Signal Intensity of 331.45 m/z peak” value ([12]; H2O, 0 hour)?
Answer: Its value is 4.8 × 10^6 ± 4.5 × 10^5.

Question: And the “Signal Intensity of 331.45 m/z peak” value ([12]; H2O, 24 hour)?
Answer: The value was 2.1 × 10^6 ± 1.3 × 10^5.

Question: And the “Signal Intensity of 331.45 m/z peak” value ([12]; PBS, 24 hour)?
Answer: Its value is 4.6 × 10^6 ± 4.2 × 10^5.

Question: What about the “binding to P. gingivalis surface proteins” value [13] of the same sequence?
Answer: The value was “demonstrated to bind”.

Question: What about the “Peptide4 mediated regulation of FimA expression” value [14] of the same sequence?
Answer: Its value is “reminded intact”.

Question: What about the “total P. gingivalis cell number with or without P4” value ([15]; P4 24 μM) of the same sequence?
Answer: Its value is “no significant difference”.

Question: And the “levels of planktonic P. gingivalis cells” value ([15]; P4 24 μM added to established biofilms)?
Answer: Its value is “significantly increased”.

Question: What about the “reduction of number of P. gingivalis in heterotypic biofilms” value ([15]; P4 24 μM, after 72 h) of the same sequence?
Answer: Its value is “approximately 50%”.

Question: And the “fimbriae on the surface (TEM)” value [16]?
Answer: The value was “few fimbriae”.
